Some results were stated once for a whole list of compounds, not compound by compound.
Target: Vesicular Monoamine Transporter Isoform 2 (VMAT2) (UniProt Q01827)
Experiment: VMAT2 competition binding assay ([3H]dihydrotetrabenazine, whole brain membranes)
Conditions: relative to (+)-α-DHTBZ

SMILES	fold less potent than (+)-α-DHTBZ as VMAT2 inhibitor
CCCCCCCCCCCCCCCC(=O)O[C@@H]1C[C@@H]2c3cc(OC)c(OC)cc3CCN2C[C@H]1CC(C)C [Compd 1-1, (2R,3R, 11bR)-3-isobutyl-9,10-dimethoxy-1,3,4,6,7,11b-hexahydro-2H-pyrido[2,1-a]isoquinolin-2-yl palmitate]	at least 1000 fold
CCCCCCCCCCCCCCCCCCCCCC(=O)O[C@@H]1C[C@@H]2c3cc(OC)c(OC)cc3CCN2C[C@H]1CC(C)C [Compd 1-2, (2R,3R, 11bR)-3-isobutyl-9,10-dimethoxy-1,3,4,6,7,11b-hexahydro-2H-pyrido[2,1 a]isoquinolin-2-yl behenate]	at least 1000 fold

From patent US11306082B2, “Esters of dihydrotetrabenazine” (Foresee Pharmaceuticals Co., Ltd., priority 2017, dated 2022)
